For this test, the target named is human full-length MKNK1 (Homo sapiens, UniProt Q9BUB5, T385D). In words: MKNK1 kinase high ATP assay (TR-FRET). Conditions: read-out: MKNK1 IC50; high ATP (2 mM), after preincubation with MKNK1; compounds of the present invention (Table 1a). The procedure:
MKNK1-inhibitory activity at high ATP of compounds of the present invention after their preincubation with MKNK1 was quantified employing the TR-FRET-based MKNK1 high ATP assay as described in the following paragraphs.
A recombinant fusion protein of Glutathione-S-Transferase (GST, N-terminally) and human full-length MKNK1 (amino acids 1-424 and T344D of accession number BAA 19885.1), expressed in insect cells using baculovirus expression system and purified via glutathione sepharose affinity chromatography, was purchased from Carna Biosciences (product no 02-145) and used as enzyme. As substrate for the kinase reaction the biotinylated peptide biotin-Ahx-IKKRKLTRRKSLKG (C-terminus in amide form) was used, which can be purchased e.g. from the company Biosyntan (Berlin-Buch, Germany). […]
The resulting mixture was incubated for 1 h at 22° C. to allow the formation of complex between the phosphorylated biotinylated peptide and the detection reagents. Subsequently the amount of phosphorylated substrate was evaluated by measurement of the resonance energy transfer from the Eu-chelate to the streptavidine-XL. Therefore, the fluorescence emissions at 620 nm and 665 nm after excitation at 350 nm were measured in a TR-FRET reader, e.g. a Rubystar (BMG Labtechnologies, Offenburg, Germany) or a Viewlux (Perkin-Elmer). […]

Amino acid sequences for entries named in this document (tags omitted). Residues count along the entry.
UniProt Q9BUB5, 1-424 isoform 2 T344D: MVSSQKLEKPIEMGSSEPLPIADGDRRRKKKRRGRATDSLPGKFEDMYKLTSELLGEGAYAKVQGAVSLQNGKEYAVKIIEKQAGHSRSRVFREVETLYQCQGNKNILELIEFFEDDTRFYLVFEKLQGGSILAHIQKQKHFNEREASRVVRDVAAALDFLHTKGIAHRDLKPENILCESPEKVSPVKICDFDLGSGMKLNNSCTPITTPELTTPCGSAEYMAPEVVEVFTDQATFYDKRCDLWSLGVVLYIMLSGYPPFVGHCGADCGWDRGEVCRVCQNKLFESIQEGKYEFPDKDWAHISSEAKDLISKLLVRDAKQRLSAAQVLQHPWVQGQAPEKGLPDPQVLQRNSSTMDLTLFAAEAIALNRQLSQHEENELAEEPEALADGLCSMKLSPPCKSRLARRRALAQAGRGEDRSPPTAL

Structures were worked out from names or drawings and are uncertain.

Consider `CC(C)(C)OC(=O)N[C@@H](CCO)C(=O)NCC1CCc2c(sc3ncnc(Nc4ccc5[nH]ncc5c4)c23)C1` (stereo partly shown), for which the half-maximal inhibitory concentration (IC50) is 23.5 nM.

The record behind these values is patent US20160159816A1, “SUBSTITUTED THIENOPYRIMIDINES AND PHARMACEUTICAL USE THEREOF” (BAYER PHARMA AKTIENGESELLSCHAFT, priority 2013, published 2016).
